Laboratory results: PubChem BioAssay AID248 (DTP/NCI, 2004)
The list shows only some results of the screen, not a fair sample: it is rich in T/C values a quarter to a half above the control, in often repeated tests (any T/C) and in doses without a T/C. Other doses and runs of a compound stand elsewhere. T/C gives the treated animals as a percentage of the vehicle group. Some entries give survivors of the animals treated and no T/C: the source files T/C as zero there, which appears to mark a toxic dose or a test without result, not a measured value. Some doses without a T/C left all or most animals alive at the check, yet need not have been tolerated: survival well below the control is almost never listed, so the zero probably covers shortened survival too. Survivors were counted at the toxicity check, usually on the fifth day, unless a day is given; later deaths do not show. Schedules are NCI's codes, read here as Q, the interval in days (D) or hours (H), X, the number of doses. Some entries were tested several times; the results are listed from low to high. Some structures stand for samples that the source files as different forms (salt, stereo form or complex); doses refer to the form tested. Counts like (3×) stand for listed records that agree. Some schedules carry Z or #; the key to these is not given. For survival time, this PubChem deposit counts one and a half times the control or more as active, and values a quarter to a half above the control carry no call in these data; other NCI protocols may use other cut-offs. Some T/C values carry the count of animals alive at the toxicity check (mostly the fifth day); without a count, all were alive then.

Test system: L1210 leukemia ip in BDF1 mice, survival T/C
Assay: NCI In Vivo Anticancer Drug Screen. Data for tumor model L1210 Leukemia (intraperitoneal) in B6D2F1 (BDF1) mice
Conditions: T/C endpoint: mean survival time, higher T/C = longer survival
[1] = dose: 400.0 mg/kg/injection, schedule: Q01DX009 (ip), vehicle: saline
[2] = dose: 100.0 mg/kg/injection, schedule: Q01DX009 (ip), vehicle: saline
[3] = dose: 200.0 mg/kg/injection, schedule: Q01DX009 (ip), vehicle: saline
[4] = dose: 400.0 mg/kg/injection, schedule: Q01DX001 (ip), vehicle: saline
[5] = dose: 40.0 mg/kg/injection, schedule: Q01DX001 (ip), vehicle: saline
[6] = dose: 80.0 mg/kg/injection, schedule: Q01DX001 (ip), vehicle: saline
[7] = dose: 200.0 mg/kg/injection, schedule: Q04DX003 (ip), vehicle: saline with Tween-80
[8] = dose: 400.0 mg/kg/injection, schedule: Q04DX003 (ip), vehicle: saline with Tween-80
[9] = dose: 200.0 mg/kg/injection, schedule: Q01DX009 (ip), vehicle: Klucel (hydroxypropylcellulose) (HPC)
[10] = dose: 400.0 mg/kg/injection, schedule: Q01DX009 (ip), vehicle: Klucel (hydroxypropylcellulose) (HPC)
[11] = dose: 400.0 mg/kg/injection, schedule: Q04DX002 (ip), vehicle: saline with Tween-80
[12] = dose: 100.0 mg/kg/injection, schedule: Q01DX001 (ip), vehicle: saline
[13] = dose: 200.0 mg/kg/injection, schedule: Q01DX001 (ip), vehicle: saline
[14] = dose: 200.0 mg/kg/injection, schedule: Q04DX003 (ip), vehicle: saline
[15] = dose: 400.0 mg/kg/injection, schedule: Q04DX003 (ip), vehicle: saline

In the case of `C=C(C)C(N)=O`, the survivor count [1] is reported as 3 of 6.

With `Nc1nc2nc3c(nc2c(=O)[nH]1)C(=O)N(c1ccc(C(=O)O)cc1)C3` the survivor count [2] was 6 of 6, the survivor count [3] was 3 of 6 and the survivor count [4] was 2 of 3. The survivor count [1] was 0 of 6.

With `C[n+]1ccc(/C=C/Nc2cccc(N)n2)cc1` the survivor count (dose: 300.0 mg/kg/injection, schedule: Q01DX001 (ip), vehicle: saline) was 1 of 6.

With `CCCCCCC(=O)OCCN1CCN(CC/C=C2\c3ccccc3Sc3ccc(C(F)(F)F)cc32)CC1` the T/C [3] was 125 % of control, the survivor count (dose: 300.0 mg/kg/injection, schedule: Q01DX009 (ip), vehicle: saline) was 6 of 6 and the T/C (dose: 300.0 mg/kg/injection, schedule: Q04DX003 (ip), vehicle: saline) was 144 % of control [4 of 6 alive].

For `CCOc1ccc2nc(C)cc(C)c2c1`, the survivor count (dose: 400.0 mg/kg/injection, schedule: Q04DX002 (ip), vehicle: Klucel (hydroxypropylcellulose) (HPC)) was 3 of 3.

With `Cc1ccc(NC(=O)OCCN(C)C)cc1NC(=O)OCCN(C)C` the survivor count (dose: 25.0 mg/kg/injection, schedule: Q01DX009 (ip), vehicle: saline) was 6 of 6, the survivor count [2] was 3 of 6 and the survivor count [3] was 0 of 6 (2×). For the same compound, the survivor count [1] was 0 of 6 (2×).

In the case of `Cc1ccc([As+](c2ccccc2)(c2ccccc2)c2ccccc2)cc1`, the survivor count [5] is reported as 2 of 6 and the survivor count [6] is reported as 0 of 6.

In the case of `N#CC(C#N)=CN1CCCCCC1`, the survivor count (dose: 100.0 mg/kg/injection, schedule: Q04DX003 (ip), vehicle: saline with Tween-80) is reported as 0 of 6, the survivor count [7] is reported as 0 of 6 and the survivor count [8] is reported as 0 of 6.

For `Nc1c2ccccc2cc2ccccc12`, the survivor count [8] was 2 of 6.

In the case of `CCCCCCCCCCCCCCCCCOc1ccc2ccccc2c1`, the survivor count (dose: 400.0 mg/kg/injection, schedule: Q01DX001 (ip), vehicle: saline with Tween-80) is reported as 6 of 6.

For `C[n+]1ncc2ccccc2c1Cc1ccc(Br)cc1`, the survivor count (dose: 25.0 mg/kg/injection, schedule: Q01DX009 (ip), vehicle: other) was 1 of 3 and 3 of 6, the survivor count (dose: 25.0 mg/kg/injection, schedule: Q04DX002 (ip), vehicle: carboxymethylcellulose (CMC)) was 3 of 3 and 6 of 6 and the survivor count (dose: 50.0 mg/kg/injection, schedule: Q04DX002 (ip), vehicle: carboxymethylcellulose (CMC)) was 1 of 3 and 5 of 6. The survivor count (dose: 50.0 mg/kg/injection, schedule: Q04DX002 (ip), vehicle: other) was 1 of 3 and 3 of 6, the survivor count (dose: 100.0 mg/kg/injection, schedule: Q04DX002 (ip), vehicle: carboxymethylcellulose (CMC)) was 1 of 3 and 2 of 6 and the survivor count (dose: 100.0 mg/kg/injection, schedule: Q04DX002 (ip), vehicle: other) was 0 of 3, 0 of 6, 1 of 3. For the same compound, the survivor count (dose: 200.0 mg/kg/injection, schedule: Q04DX002 (ip), vehicle: other) was 0 of 3 and 0 of 6 and the survivor count (dose: 400.0 mg/kg/injection, schedule: Q04DX002 (ip), vehicle: other) was 0 of 3 and 0 of 6.

`CC(/C(=N\N=C(N)N)c1ccccc1)N(C)C` (stereo not drawn) was tested, and the survivor count (dose: 200.0 mg/kg/injection, schedule: Q01DX Z (oral), vehicle: methylcellulose (MC)) was 2 of 6, the survivor count (dose: 250.0 mg/kg/injection, schedule: Q01DX Z (ip), vehicle: methylcellulose (MC)) was 0 of 6 and the survivor count (dose: 375.0 mg/kg/injection, schedule: Q01DX Z (ip), vehicle: methylcellulose (MC)) was 0 of 6. The survivor count (dose: 400.0 mg/kg/injection, schedule: Q01DX Z (oral), vehicle: methylcellulose (MC)) was 2 of 6 and the survivor count (dose: 500.0 mg/kg/injection, schedule: Q01DX Z (ip), vehicle: methylcellulose (MC)) was 0 of 6.

With `c1ccc(CNNCc2ccccc2)cc1` the survivor count (dose: 300.0 mg/kg/injection, schedule: Q01DX009 (ip), vehicle: Klucel (hydroxypropylcellulose) (HPC)) was 3 of 6 and the survivor count (dose: 400.0 mg/kg/injection, schedule: Q04DX003 (ip), vehicle: Klucel (hydroxypropylcellulose) (HPC)) was 5 of 6.

For `CC(C)n1ncc2c(N)ncnc21`, the survivor count (dose: 60.0 mg/kg/injection, schedule: Q01DX001 (ip), vehicle: saline) was 0 of 6.

For `O=S(=O)(F)c1cc(Cl)c(S)c(Cl)c1`, the survivor count [9] was 0 of 6 and the survivor count [10] was 0 of 6.

`Nc1cc(Nc2ccc(CCO)cc2)nc(N)n1` was tested, and the survivor count (dose: 100.0 mg/kg/injection, schedule: Q01DX Z (ip), vehicle: methylcellulose (MC)) was 3 of 6.

In the case of `CCOC(=O)CC1(C)NC(C(=O)O)C(C)(C)S1` (stereo not drawn), the survivor count [9] is reported as 3 of 3.

`CCCCCCCC(=O)O[C@H]1[C@H]2[C@@H](CC1(C)C)C(=O)[C@]13O[C@H]1C(=O)[C@]1(CO1)[C@]23C` was tested, and the survivor count (dose: 40.0 mg/kg/injection, schedule: Q04DX003 (ip), vehicle: saline with Tween-80) was 3 of 6.

With `NCCc1cn(C2OC(CO)C(O)C(O)C2O)c2ccccc12` (stereo not drawn) the survivor count (dose: 50.0 mg/kg/injection, schedule: Q01DX005 (ip), vehicle: saline) was 4 of 4.

`COC(=O)c1ccccc1N=NNc1ccccc1C(=O)OC` was tested, and the survivor count [11] was 1 of 3.

`CC(C)C(C)(O)C#N` (stereo not drawn) was tested, and the survivor count [5] was 1 of 4, the survivor count [6] was 0 of 4 and the survivor count [12] was 0 of 4. The survivor count [13] was 0 of 4 and the survivor count [4] was 0 of 4.

With `Cc1ccc(-n2c(=S)[nH]c3ccc(C)cc3c2=O)cc1` the survivor count (dose: 50.0 mg/kg/injection, schedule: Q01DX009 (ip), vehicle: saline with Tween-80) was 6 of 6, the survivor count (dose: 100.0 mg/kg/injection, schedule: Q01DX009 (ip), vehicle: saline with Tween-80) was 6 of 6 and the survivor count [7] was 6 of 6. For the same compound, the survivor count [8] was 6 of 6.

For `O=C(COCC(=O)N/N=C/c1ccccc1Cl)N/N=C\c1ccccc1Cl`, the survivor count [10] was 6 of 6.

With `Cc1cc[n+](CCc2ccccc2)cc1` the survivor count [14] was 2 of 6 (2×), the survivor count (dose: 300.0 mg/kg/injection, schedule: Q01DX001 (ip), vehicle: carboxymethylcellulose (CMC)) was 1 of 6 and the survivor count [15] was 0 of 6 (2×).

For `Nc1nc2ncc(CNc3ccc(C(=O)NC(CCC(=O)O)C(=O)O)cc3)nc2c(=O)[nH]1` (stereo not drawn), the survivor count (dose: 200.0 mg/kg/injection, schedule: Q04DX002 (ip), vehicle: saline with Tween-80) was 1 of 3 and the survivor count [11] was 0 of 6 and 1 of 3.

For `COP(=O)(OC)OCc1cnc(SC)nc1N`, the survivor count [14] was 3 of 6 and the survivor count [15] was 1 of 6.

`Cc1cc(O)[nH]c(=O)c1` was tested, and the survivor count [12] was 1 of 4, the survivor count [13] was 0 of 4 and the survivor count [4] was 2 of 4.

`CN(C)c1ncnc2nsnc12` was tested, and the survivor count [7] was 0 of 6 and the survivor count [8] was 0 of 6.

In the case of `NCCc1cc(O)c(O)cc1O`, the survivor count [3] is reported as 3 of 6 and the survivor count [1] is reported as 3 of 6.

For `Nc1ccc(N)cc1`, the survivor count (dose: 25.0 mg/kg/injection, schedule: Q01DX009 (ip), vehicle: DMSO) was 5 of 6, the survivor count (dose: 50.0 mg/kg/injection, schedule: Q01DX009 (ip), vehicle: DMSO) was 5 of 6 (2×) and the survivor count [6] was 2 of 6. For the same compound, the survivor count [12] was 0 of 6, the survivor count (dose: 100.0 mg/kg/injection, schedule: Q01DX009 (ip), vehicle: DMSO) was 0 of 6 and the survivor count [13] was 0 of 6. For the same compound, the survivor count (dose: 200.0 mg/kg/injection, schedule: Q01DX009 (ip), vehicle: DMSO) was 0 of 6, the survivor count [4] was 0 of 6 and the survivor count (dose: 400.0 mg/kg/injection, schedule: Q04DX003 (ip), vehicle: DMSO) was 3 of 6.

With `C1CCC(C2CCC(C3CCCCC3)CC2)CC1` (stereo not drawn) the survivor count [4] was 2 of 4.

With `N#Cc1cc(C#N)c(Cl)nc1N` the survivor count [10] was 4 of 6.

With `O=C1CNC(=O)N1CCCl` the survivor count [14] was 6 of 6.

For `CCC(C)C(C(=O)OC1CCN(C)CC1)c1ccccc1` (stereo not drawn), the survivor count [3] was 1 of 6, the survivor count [14] was 2 of 6 and the survivor count [15] was 0 of 6.
